In experiment [1] the target is Hspb1 (mouse (endogenous in primary acinar cells and 266-6 cells)) (UniProt P14602). The experiment is described as follows: co-IP; endogenous proteins in lysate of isolated primary acinar cells treated with 100 nM caerulein or PBS for 6 hours; anti-Hspb1 or anti-Anxa2 antibody, Protein A/G agarose beads, Western blot. Background: A western blot detects proteins with antibodies after separation by electrophoresis.

The chains behind the UniProt entries cited, without tags or fusion partners.
UniProt P14602: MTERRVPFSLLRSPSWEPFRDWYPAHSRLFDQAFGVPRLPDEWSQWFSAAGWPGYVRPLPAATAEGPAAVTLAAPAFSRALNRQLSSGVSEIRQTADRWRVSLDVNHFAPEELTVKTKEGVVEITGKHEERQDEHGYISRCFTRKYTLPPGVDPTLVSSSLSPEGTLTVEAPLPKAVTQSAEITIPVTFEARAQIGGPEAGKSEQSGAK
UniProt P07356: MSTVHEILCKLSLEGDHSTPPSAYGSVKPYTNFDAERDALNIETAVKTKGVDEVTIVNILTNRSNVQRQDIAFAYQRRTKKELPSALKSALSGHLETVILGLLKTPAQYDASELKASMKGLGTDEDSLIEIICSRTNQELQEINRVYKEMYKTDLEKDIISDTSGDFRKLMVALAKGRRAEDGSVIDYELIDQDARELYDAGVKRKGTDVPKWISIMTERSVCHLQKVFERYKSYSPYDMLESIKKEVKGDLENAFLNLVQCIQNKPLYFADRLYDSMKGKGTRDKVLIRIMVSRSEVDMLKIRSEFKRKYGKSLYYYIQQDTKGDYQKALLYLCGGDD

Experiment [2] has as its target T1, Prdx1 (mouse (endogenous in primary acinar cells and 266-6 cells)) (UniProt P35700).
T1 sequence: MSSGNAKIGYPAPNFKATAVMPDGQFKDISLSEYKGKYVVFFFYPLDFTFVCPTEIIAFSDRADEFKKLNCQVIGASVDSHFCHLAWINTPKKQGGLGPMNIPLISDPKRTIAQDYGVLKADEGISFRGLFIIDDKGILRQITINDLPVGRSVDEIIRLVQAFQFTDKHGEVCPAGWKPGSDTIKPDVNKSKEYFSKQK
The experiment is described as follows: co-IP; endogenous proteins in 266-6 cells; anti-Hspb1 antibody (ctrl siRNA group) or anti-Prdx1 antibody (ctrl and Hspb1 KO cells), Western blot.

The target of the next experiment is His-tagged Hspb1 (UniProt P14602). The experiment is described as follows: co-IP; HEK293T cells cotransfected with His-Hspb1 and HA-Anxa2 (or HA-Anxa2 truncation mutants) for 48 hours; anti-His or anti-HA antibody, Western blot.

No constants are given. Whether binding was seen depends on the method and setting. Binding seen in cells or lysates may run through a third protein. Some results given as binding are weak or reduced against the parent protein; the word gives no strength.

Regarding Anxa2 (from UniProt P07356 1-339), the binding result in experiment [1] and in experiment [2] was “binds” throughout.

Take “HA-tagged Anxa2 (from UniProt P07356 1-339)”: the binding entry in the experiment with His-tagged Hspb1 is “binds”.

(Values after paper PMC10929186.)
